Binding data for one substance are collected here from article PMC3464259.

By UniProt entry, the sequences of proteins in these tests, tags left out.
UniProt P10275: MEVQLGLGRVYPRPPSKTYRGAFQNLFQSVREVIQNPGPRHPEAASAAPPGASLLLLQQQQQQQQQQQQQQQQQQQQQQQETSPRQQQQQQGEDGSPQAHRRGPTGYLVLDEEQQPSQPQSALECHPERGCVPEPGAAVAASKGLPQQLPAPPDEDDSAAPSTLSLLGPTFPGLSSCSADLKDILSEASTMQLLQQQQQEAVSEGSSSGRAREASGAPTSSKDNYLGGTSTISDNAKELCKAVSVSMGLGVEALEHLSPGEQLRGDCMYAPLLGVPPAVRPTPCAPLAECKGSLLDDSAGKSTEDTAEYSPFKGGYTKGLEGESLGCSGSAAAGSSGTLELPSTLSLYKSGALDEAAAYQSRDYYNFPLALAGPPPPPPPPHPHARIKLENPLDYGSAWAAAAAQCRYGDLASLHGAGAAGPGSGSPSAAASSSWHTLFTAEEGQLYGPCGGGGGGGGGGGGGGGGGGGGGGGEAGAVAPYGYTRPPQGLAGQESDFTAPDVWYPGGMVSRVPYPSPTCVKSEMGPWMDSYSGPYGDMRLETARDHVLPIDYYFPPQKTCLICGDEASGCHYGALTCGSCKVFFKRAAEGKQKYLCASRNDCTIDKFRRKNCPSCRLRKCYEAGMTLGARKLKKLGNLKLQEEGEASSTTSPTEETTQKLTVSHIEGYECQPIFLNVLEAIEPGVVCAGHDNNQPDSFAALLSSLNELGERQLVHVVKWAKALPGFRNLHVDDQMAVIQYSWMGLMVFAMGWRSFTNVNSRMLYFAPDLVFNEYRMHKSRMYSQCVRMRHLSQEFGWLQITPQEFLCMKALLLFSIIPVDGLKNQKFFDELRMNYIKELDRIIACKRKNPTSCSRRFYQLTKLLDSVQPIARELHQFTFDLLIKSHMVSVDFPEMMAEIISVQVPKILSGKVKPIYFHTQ
UniProt P48436: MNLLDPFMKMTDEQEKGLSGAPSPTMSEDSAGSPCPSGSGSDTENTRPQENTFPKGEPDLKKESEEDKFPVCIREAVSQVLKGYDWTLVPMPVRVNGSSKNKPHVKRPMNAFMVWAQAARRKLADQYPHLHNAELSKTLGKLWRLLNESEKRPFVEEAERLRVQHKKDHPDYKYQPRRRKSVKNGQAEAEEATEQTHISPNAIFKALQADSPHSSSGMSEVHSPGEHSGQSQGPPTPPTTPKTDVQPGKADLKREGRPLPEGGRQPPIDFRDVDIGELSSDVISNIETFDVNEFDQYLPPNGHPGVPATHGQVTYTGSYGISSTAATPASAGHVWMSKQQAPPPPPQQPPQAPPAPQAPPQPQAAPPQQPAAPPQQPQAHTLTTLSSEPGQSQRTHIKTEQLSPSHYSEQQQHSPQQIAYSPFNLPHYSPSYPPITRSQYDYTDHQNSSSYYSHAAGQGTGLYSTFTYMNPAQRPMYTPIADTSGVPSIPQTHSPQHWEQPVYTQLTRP

Results are given in words; binding and its absence hold for the method and conditions named. In cells and extracts the contact can be indirect. Some binding calls cover weakened binding; strength is not graded here.

In the test the target is Androgen receptor (human (endogenous in LAPC4)) (UniProt P10275). Description: co-IP; LAPC4 lysate (Buffer A: 50 mM Tris-Cl pH 7.4, 150 mM NaCl, 5 mM EDTA, 0.5% Nonidet P-40); precipitated with anti-AR (AR441) or control antibody (anti-Lyn), protein A sepharose; blots for AR and SOX9.

For SOX9 (from UniProt P48436 1-509), the binding entry was “binds”.
